The list shows a part of the results. Residues, ends and D or L forms follow the SMILES beside them. *: point of attachment. Cbz = O=C(OCc1ccccc1)*
Tests used:
Assay in all cases: log2 fold change, soluble protein after heating vs DMSO (PISA); higher = thermal stabilisation; K562 cells, 10 uM, 30 min; active = over 0.2 and 3.5 SD of the protein, either way, in both replicates (recomputed)
ralimetinib = compound: CC(C)(C)Cn1c(N)nc2ccc(-c3[nH]c(C(C)(C)C)nc3-c3ccc(F)cc3)nc21 [ralimetinib]
How it was run: (§1)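 Quantification of soluble protein used TMTpro 16plex LC-MS/MS, with channel sums equalised. Samples were the supernatant after 21,000xg for 90 min of pooled aliquots from K562 cells (2×10^6 cells/mL) treated with 10 μM compound for 30 min, heated for 3 min over 48°C-58°C, and extracted in PBS with 0.5% NP-40 at 4°C. Values, from duplicates, describe thermal stability against control samples on a log2 fold-change scale.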

Chains of the proteins cited; added tags and fusions are not shown. Lines headed by an entry give the natural chain unless they say otherwise; changes in a name come on top.
UniProt Q99759: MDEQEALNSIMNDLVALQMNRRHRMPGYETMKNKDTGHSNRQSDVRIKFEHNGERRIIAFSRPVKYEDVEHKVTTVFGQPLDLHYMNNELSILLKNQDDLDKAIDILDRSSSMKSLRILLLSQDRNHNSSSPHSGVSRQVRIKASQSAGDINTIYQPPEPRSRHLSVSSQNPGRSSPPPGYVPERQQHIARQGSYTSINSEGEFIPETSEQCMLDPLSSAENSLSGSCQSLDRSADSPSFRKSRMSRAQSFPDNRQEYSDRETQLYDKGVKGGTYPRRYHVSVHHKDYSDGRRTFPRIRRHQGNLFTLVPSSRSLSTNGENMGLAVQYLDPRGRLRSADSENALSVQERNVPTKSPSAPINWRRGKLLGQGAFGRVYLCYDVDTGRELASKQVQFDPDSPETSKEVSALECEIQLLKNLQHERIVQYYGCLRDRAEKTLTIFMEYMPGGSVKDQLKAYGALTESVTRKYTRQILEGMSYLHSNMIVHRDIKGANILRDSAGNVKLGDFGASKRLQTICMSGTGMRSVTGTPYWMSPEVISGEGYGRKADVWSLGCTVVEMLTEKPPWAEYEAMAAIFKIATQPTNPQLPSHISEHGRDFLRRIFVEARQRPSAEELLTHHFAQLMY
UniProt Q86UD3: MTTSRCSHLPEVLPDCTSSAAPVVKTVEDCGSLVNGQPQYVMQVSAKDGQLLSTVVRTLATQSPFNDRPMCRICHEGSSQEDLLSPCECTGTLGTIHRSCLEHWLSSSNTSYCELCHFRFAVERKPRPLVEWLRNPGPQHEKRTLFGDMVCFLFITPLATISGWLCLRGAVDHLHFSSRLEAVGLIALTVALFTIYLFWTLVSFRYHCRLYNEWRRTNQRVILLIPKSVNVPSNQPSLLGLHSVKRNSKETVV
UniProt Q9H8J5: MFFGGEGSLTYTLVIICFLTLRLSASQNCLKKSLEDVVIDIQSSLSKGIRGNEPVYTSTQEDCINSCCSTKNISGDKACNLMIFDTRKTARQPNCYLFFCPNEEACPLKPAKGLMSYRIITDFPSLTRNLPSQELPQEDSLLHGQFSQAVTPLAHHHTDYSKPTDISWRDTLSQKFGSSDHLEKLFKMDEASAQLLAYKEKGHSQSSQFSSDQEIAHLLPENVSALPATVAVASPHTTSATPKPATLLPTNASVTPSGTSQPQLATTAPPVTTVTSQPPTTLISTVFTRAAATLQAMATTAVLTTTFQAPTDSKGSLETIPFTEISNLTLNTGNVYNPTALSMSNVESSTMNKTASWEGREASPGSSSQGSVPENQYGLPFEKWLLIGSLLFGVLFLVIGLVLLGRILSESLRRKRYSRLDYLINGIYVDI
UniProt Q6P9F7: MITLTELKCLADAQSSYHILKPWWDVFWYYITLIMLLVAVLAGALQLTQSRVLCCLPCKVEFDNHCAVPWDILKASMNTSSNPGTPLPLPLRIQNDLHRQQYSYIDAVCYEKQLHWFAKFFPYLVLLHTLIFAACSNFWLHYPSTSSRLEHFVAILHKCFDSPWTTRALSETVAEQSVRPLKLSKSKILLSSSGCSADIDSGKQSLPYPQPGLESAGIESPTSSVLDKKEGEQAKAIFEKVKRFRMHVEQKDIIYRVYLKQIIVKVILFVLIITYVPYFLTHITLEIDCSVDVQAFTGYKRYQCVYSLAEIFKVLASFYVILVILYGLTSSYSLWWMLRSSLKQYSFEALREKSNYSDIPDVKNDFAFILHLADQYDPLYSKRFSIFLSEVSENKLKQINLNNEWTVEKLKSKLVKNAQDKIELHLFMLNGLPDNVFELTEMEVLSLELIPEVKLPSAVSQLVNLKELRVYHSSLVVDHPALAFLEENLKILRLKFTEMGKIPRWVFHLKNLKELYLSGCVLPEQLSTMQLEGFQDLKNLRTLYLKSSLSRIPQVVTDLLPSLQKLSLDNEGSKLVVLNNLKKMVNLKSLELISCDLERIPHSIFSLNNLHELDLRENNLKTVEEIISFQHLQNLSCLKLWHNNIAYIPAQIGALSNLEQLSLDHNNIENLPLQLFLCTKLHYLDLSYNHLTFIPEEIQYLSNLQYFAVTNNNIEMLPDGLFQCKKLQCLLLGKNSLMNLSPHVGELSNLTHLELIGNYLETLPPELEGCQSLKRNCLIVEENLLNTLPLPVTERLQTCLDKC
UniProt Q9C099: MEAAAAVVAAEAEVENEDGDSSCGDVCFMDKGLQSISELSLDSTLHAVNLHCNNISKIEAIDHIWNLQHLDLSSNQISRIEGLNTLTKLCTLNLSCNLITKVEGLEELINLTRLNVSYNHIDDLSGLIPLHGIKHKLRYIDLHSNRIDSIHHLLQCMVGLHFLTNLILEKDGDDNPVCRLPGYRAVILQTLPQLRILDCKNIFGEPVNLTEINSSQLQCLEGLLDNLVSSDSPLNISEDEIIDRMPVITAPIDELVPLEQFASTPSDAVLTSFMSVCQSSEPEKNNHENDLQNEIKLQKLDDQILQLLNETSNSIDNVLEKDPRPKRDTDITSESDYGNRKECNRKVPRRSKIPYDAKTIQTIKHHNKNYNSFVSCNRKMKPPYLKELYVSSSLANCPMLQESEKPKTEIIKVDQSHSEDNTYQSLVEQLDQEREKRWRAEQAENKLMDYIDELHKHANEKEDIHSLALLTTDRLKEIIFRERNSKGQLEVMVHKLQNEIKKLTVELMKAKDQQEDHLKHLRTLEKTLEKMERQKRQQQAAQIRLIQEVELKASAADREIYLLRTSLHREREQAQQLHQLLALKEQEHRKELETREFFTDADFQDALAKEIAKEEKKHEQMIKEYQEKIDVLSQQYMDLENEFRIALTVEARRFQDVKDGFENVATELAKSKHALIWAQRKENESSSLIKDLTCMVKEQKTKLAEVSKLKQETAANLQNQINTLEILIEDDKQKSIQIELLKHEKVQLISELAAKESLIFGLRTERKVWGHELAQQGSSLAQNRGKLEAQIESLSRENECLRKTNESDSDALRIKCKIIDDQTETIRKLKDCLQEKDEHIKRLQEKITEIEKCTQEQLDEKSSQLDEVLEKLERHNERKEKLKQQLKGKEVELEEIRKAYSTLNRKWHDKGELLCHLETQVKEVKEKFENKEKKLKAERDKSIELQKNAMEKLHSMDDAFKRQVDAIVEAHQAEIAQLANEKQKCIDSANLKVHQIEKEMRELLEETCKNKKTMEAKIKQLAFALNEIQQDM
UniProt Q8IWC1: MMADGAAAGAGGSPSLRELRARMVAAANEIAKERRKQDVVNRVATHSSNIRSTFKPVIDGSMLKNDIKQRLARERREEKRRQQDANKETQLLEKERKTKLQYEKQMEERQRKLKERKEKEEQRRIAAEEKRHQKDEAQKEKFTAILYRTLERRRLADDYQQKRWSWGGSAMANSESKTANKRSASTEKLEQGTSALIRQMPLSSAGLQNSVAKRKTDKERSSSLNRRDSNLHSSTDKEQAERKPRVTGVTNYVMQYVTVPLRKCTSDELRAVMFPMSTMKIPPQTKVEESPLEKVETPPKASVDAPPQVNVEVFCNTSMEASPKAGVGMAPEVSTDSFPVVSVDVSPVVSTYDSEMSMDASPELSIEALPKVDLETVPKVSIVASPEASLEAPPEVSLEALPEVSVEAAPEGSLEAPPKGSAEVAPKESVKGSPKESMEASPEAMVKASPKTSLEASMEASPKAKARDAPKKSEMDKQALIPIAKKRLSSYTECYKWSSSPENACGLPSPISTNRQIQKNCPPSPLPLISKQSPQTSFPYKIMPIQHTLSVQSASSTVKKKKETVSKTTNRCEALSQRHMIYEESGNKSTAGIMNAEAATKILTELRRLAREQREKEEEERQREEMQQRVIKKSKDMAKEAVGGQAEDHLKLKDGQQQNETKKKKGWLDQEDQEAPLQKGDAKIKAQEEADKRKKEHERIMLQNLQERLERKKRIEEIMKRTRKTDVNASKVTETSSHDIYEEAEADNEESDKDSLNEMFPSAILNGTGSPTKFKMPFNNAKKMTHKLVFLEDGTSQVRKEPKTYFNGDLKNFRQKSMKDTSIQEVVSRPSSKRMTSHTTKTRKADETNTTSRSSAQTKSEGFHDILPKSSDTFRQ
UniProt Q13163: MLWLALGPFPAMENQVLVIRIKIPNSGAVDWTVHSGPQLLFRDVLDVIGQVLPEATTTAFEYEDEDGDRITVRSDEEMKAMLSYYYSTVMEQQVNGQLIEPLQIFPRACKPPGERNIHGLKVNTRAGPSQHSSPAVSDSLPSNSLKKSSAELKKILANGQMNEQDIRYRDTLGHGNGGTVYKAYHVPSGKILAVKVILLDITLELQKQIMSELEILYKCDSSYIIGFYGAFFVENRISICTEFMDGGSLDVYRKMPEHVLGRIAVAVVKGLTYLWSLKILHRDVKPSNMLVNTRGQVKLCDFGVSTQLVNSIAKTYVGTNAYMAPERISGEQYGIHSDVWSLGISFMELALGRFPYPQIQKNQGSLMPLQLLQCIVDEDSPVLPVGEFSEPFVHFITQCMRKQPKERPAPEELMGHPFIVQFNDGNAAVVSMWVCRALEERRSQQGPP
UniProt Q9UPY8, whole entry, looked up: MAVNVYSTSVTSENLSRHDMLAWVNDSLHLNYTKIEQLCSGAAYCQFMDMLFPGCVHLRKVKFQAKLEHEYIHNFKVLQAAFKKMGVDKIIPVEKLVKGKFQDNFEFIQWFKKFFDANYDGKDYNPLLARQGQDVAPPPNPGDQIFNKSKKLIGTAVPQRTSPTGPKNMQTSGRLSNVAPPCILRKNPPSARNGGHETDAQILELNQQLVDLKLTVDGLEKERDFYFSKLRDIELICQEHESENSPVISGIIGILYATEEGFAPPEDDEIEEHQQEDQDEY
UniProt Q9UI95, whole entry, looked up: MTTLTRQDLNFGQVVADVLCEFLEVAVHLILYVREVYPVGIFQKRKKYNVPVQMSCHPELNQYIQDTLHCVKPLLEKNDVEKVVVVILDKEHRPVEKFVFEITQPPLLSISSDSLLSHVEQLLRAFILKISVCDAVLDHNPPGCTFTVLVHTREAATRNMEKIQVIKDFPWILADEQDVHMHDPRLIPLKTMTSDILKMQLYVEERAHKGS
UniProt P10636, whole entry, looked up: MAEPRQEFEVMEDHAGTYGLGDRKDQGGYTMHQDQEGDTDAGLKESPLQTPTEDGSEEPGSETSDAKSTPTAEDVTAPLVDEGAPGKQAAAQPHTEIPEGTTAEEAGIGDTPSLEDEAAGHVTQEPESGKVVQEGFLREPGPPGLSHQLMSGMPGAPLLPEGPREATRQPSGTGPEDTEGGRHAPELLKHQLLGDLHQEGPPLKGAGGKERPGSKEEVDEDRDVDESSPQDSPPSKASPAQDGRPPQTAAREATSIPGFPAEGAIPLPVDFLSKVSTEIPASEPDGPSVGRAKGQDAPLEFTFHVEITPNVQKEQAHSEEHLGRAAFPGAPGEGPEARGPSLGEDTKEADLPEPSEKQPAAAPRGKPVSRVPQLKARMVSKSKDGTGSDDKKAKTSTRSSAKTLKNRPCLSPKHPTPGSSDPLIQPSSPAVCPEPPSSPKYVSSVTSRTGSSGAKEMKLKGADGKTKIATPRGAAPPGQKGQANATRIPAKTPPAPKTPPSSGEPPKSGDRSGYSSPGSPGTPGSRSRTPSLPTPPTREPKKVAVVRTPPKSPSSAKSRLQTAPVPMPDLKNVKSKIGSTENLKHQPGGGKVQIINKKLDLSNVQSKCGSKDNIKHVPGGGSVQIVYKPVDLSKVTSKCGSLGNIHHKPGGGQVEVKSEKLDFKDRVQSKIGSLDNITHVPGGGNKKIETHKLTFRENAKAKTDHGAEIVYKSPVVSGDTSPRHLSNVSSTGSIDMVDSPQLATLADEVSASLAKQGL
UniProt Q15759, whole entry, looked up: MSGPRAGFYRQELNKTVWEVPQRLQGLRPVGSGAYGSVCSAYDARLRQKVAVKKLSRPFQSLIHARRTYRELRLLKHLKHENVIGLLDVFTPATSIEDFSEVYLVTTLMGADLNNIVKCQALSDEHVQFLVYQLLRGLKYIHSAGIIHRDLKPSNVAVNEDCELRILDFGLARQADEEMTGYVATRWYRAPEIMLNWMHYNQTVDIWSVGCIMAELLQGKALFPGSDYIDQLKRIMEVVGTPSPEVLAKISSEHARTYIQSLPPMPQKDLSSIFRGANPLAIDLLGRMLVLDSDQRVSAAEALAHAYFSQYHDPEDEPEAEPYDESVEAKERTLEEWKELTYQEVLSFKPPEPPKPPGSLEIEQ

[1] = compound: CC(C)(O)CC(=O)NCCn1ccc2ncnc(Nc3ccc(Oc4cccc(C(F)(F)F)c4)c(Cl)c3)c21
How it was run: as §1

[2] = compound: CC(C)C1=C2N=C(C=C(N2N=C1)NCC3=CC=CC=C3)NCCCCCCN
How it was run: as §1

[3] = compound: CC(C)C[C@@H](C=O)NC(=O)[C@H](CC(C)C)NC(=O)[C@H](CC(C)C)NC(=O)OCc1ccccc1
How it was run: as §1

[4] = compound: CC1=C(C(CC(=O)N1)C2=CC=C(C=C2)C(F)(F)F)C(=O)NC3=C(C=C4C(=C3)C=NN4)F
How it was run: as §1

[5] = compound: CC1=C(C2=C(C=C1)C(=O)C3=CC=CC=C3N2CCCN)C
How it was run: as §1

[6] = compound: CC1=C(C=C(C=C1)NC(=O)C2=CC(=CC=C2)C(C)(C)C#N)NC3=CC4=C(C=C3)N=CN(C4=O)C
How it was run: as §1

[7] = compound: CC1=C(C=C(C=C1)NC(=O)C2=CC(=CC=C2)N(C)C)NC(=O)C3=CC=C(C=C3)O
How it was run: as §1

Nexturastat A = compound: CCCCN(Cc1ccc(C(=O)NO)cc1)C(=O)Nc1ccccc1 [Nexturastat A]
How it was run: as §1

vemurafenib = compound: CCCS(=O)(=O)Nc1ccc(F)c(C(=O)c2c[nH]c3ncc(-c4ccc(Cl)cc4)cc23)c1F [vemurafenib]
How it was run: as §1

[8] = compound: CCCc1cc(C)[nH]c(=O)c1CNC(=O)c1cc(-c2ccnc(N3CCN(C)CC3)c2)cc2c1cnn2C(C)C
How it was run: as §1

givinostat = compound: CCN(CC)Cc1ccc2cc(COC(=O)Nc3ccc(C(=O)NO)cc3)ccc2c1 [givinostat]
How it was run: as §1

ibrutinib = compound: C=CC(=O)N1CCC[C@@H](n2nc(-c3ccc(Oc4ccccc4)cc3)c3c(N)ncnc32)C1 [ibrutinib]
How it was run: as §1

[9] = compound: CC1=CC=C(C=C1)SC2=C3C=C(SC3=CN=C2)C(=O)N
How it was run: as §1

[10] = compound: CCCS(=O)(=O)Nc1ccc(F)c(C(=O)c2c[nH]c3ncc(Cl)cc23)c1F
How it was run: as §1

barasertib = compound: CCN(CCCOc1ccc2c(Nc3cc(CC(=O)Nc4cccc(F)c4)[nH]n3)ncnc2c1)CCOP(=O)(O)O [barasertib]
How it was run: as §1

[11] = compound: CC(=O)c1cnc2ccc(-c3cc(Cl)c(O)c(Cl)c3)nc2c1N[C@H]1CC[C@H](CN(C)C)CC1
How it was run: as §1

IRAK-1-4 Inhibitor I = compound: C1COCCN1CCN2C3=CC=CC=C3N=C2NC(=O)C4=CC(=CC=C4)[N+](=O)[O-] [IRAK-1-4 Inhibitor I]
How it was run: as §1

pinometostat = compound: CC(C)N(C[C@H]1O[C@@H](n2cnc3c(N)ncnc32)[C@H](O)[C@@H]1O)[C@H]1C[C@@H](CCc2nc3cc(C(C)(C)C)ccc3[nH]2)C1 [pinometostat]
How it was run: as §1

[12] = compound: CC1=NC(=CC=C1)C2=C(N=C(N2)C(C)(C)C)C3=CC4=NC=CN=C4C=C3
How it was run: as §1

Measured: log2 fold change

MAP3K3 isoform 2 (UniProt Q99759)
inactive: ralimetinib -0.004 | [1] -0.27 | [2] -0.074 | [3] -0.01 | [4] 0.072 | [5] 0.068 | [6] -0.166 | [7] -0.049 | Nexturastat A -0.116 | vemurafenib 0.162 | [8] 0.058 | givinostat -0.085

MARCHF3 (UniProt Q86UD3)
inactive: ibrutinib 0.073 | [1] -0.133 | [6] 0.001 | [9] -0.008 | Nexturastat A 0.081 | [10] -0.01 | barasertib 0.025

MANSC1 (UniProt Q9H8J5)
inactive: [11] 0.028 | [4] 0.09 | [5] -0.07

LRRC8B (UniProt Q6P9F7)
inactive: ibrutinib -0.038 | ralimetinib 0.135 | [1] 0.052 | [2] 0.251 | [3] 0.184 | [4] -0.144 | [6] 0.077 | [7] 0.073 | [9] -0.095 | Nexturastat A 0.068 | [10] 0.001 | [8] 0.142 | givinostat 0.027 | barasertib -0.119

LRRCC1 (UniProt Q9C099)
inactive: [11] 0.047 | ralimetinib 0.043 | [3] 0.237 | [5] 0.109 | [7] 0.039

Looked up one by one from the list above, 2 records:
MARCHF3 (UniProt Q86UD3)
inactive: ibrutinib 0.073 | [1] -0.133 | [6] 0.001 | [9] -0.008 | Nexturastat A 0.081 | [10] -0.01 | barasertib 0.025

LRRCC1 (UniProt Q9C099)
inactive: [11] 0.047 | ralimetinib 0.043 | [3] 0.237 | [5] 0.109 | [7] 0.039

(list continues)

MAP4K4 isoform 6 (UniProt O95819)
inactive: [5] 0.143 | [6] -0.031 | vemurafenib -0.052 | [8] 0.393

MAP7D3 (UniProt Q8IWC1)
inactive: ibrutinib -0.047 | ralimetinib 0.332 | [1] -0.005 | [2] -0.165 | [3] 0.211 | [4] 0.019 | [6] -0.132 | [7] -0.014 | Nexturastat A 0.195 | givinostat -0.009 | barasertib -0.118

LYPLA1, A0A087X1K9
inactive: ralimetinib -0.018 | [3] -0.123 | [7] 0.108 | [8] -0.184

MAP2K5 (UniProt Q13163)
inactive: IRAK-1-4 Inhibitor I 0.063 | ralimetinib 0.066 | [3] -0.238 | pinometostat -0.051 | [7] -0.085 | [12] 0.017
active: [11] -1.19

MAPRE3 isoform 2 (UniProt Q9UPY8)
inactive: IRAK-1-4 Inhibitor I -0.384 | [11] -0.139 | pinometostat -0.101 | [5] 0.109 | [9] -0.075 | [12] -0.065 | [10] 0.029

MAD2L2 (UniProt Q9UI95)
inactive: IRAK-1-4 Inhibitor I -0.31 | [11] -0.071 | [1] -0.351 | [2] 0.052 | pinometostat 0.06 | [6] -0.099 | [12] -0.554 | Nexturastat A 0.099 | givinostat -0.029

MAPT isoform 9 (UniProt P10636)
inactive: ibrutinib 0.043 | [11] 0.065 | [1] 0.086 | [2] 0.036 | [6] -0.004 | [9] -0.081 | Nexturastat A -0.134 | vemurafenib -0.022 | [10] -0.005 | givinostat -0.128 | barasertib 0.055

MAP3K20 isoform 2 (UniProt Q9NYL2)
active: [6] -0.375
inactive: IRAK-1-4 Inhibitor I -0.164 | [11] -0.126 | [1] 0.078 | [2] 0.089 | pinometostat -0.021 | [5] -0.071 | [9] -0.038 | [12] 0.295 | Nexturastat A 0.16 | [10] 0.044 | [8] -0.017 | givinostat 0.003

MAPK11 (UniProt Q15759)
active: ralimetinib 1.47
inactive: IRAK-1-4 Inhibitor I -0.22 | [2] -0.853 | [3] -0.091 | pinometostat -0.111 | [5] 0.103 | [7] 0.094 | [12] 0.045 | givinostat 0.131

LSR (UniProt M0QZL9)
inactive: [1] 0.057 | [6] -0.324 | Nexturastat A -0.157 | vemurafenib 0.024

Reference: the supplement of paper PMC10849652
